Measured data: PubChem BioAssay AID1159584 (Peter MacCallum Cancer Centre, 2016)

Screen: 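Knock-downs that harm CDH1-null cells more than parental MCF10A cells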 (primary screen)
Cells: human MCF10A breast epithelial cells, parental and CDH1-null
Reagent: siRNA against human genes
Measured: 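ATP luminescence (CellTiter-Glo) viability per line relative to mean mock wells over all plates, and the ratio of CDH1-null to parental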
Scale: CDH1-null / parental viability ratio: higher = CDH1-null cells survive relatively better than parental; CDH1-null viability vs mock: higher = more viable CDH1-null cells
Here is a random part of about 18,000 deposited reagents. Not all columns of the deposit are shown. Reagent sequences are not shown. Not given: the amount of reagent, the time to read-out.

| gene symbol | CDH1-null / parental viability ratio | CDH1-null viability vs mock (fraction of mock) |
| --- | --- | --- |
| GSTM1 (glutathione S-transferase mu 1) | 0.85 | 0.6 |
| MGRN1 (mahogunin ring finger 1) | 1 | 0.96 |
| INMT (indolethylamine N-methyltransferase) | 0.84 | 0.42 |
| TRARG1 (trafficking regulator of GLUT4 (SLC2A4) 1 (gene/pseudogene)) | 1.04 | 0.76 |
| LRRC57 (leucine rich repeat containing 57) | 1.25 | 0.64 |
| BLMH (bleomycin hydrolase) | 1.39 | 0.92 |
| SLC43A2 | 1.09 | 0.62 |
| ATP6V1G1 (ATPase H+ transporting V1 subunit G1) | 1.09 | 0.76 |
| CER1 (cerberus 1, DAN family BMP antagonist) | 1.18 | 1.04 |
| CYBA (cytochrome b-245 alpha chain) | 0.82 | 0.71 |
| PPRC1 (PPARG related coactivator 1) | 0.94 | 0.63 |
| GNB1L (G protein subunit beta 1 like) | 0.92 | 0.48 |
| MVB12A (multivesicular body subunit 12A) | 1.09 | 0.74 |
| TRIB3 (tribbles pseudokinase 3) | 1.21 | 0.92 |
| LIX1 (limb and CNS expressed 1) | 0.8 | 0.88 |
| DYRK1B | 0.96 | 0.86 |
| RRAS (RAS related) | 0.88 | 0.76 |
| PEX11B (peroxisomal biogenesis factor 11 beta) | 0.95 | 0.76 |
| GP2 (glycoprotein 2) | 1.08 | 1.12 |
| TAS2R38 (taste 2 receptor member 38) | 1.21 | 0.74 |
| PDE4A (phosphodiesterase 4A) | 0.85 | 0.9 |
| MACROD1 (mono-ADP ribosylhydrolase 1) | 1.27 | 1.17 |
| MTHFR (methylenetetrahydrofolate reductase) | 1.18 | 0.92 |
| RPS24 (ribosomal protein S24) | 1.65 | 0.56 |
| TTYH2 (tweety family member 2) | 0.86 | 0.72 |
| AVL9 (AVL9 cell migration associated) | 1.16 | 0.5 |
| MYOG (myogenin) | 1.13 | 1.06 |
| SLC20A2 | 1.16 | 1.04 |
| KLHDC1 (kelch domain containing 1) | 1.42 | 1.02 |
| PABPC5 (poly(A) binding protein cytoplasmic 5) | 1 | 0.8 |
| NRBF2 (nuclear receptor binding factor 2) | 1.17 | 0.77 |
| VPS72 (vacuolar protein sorting 72 homolog) | 0.86 | 0.7 |
| SACK1A (scaffolding CK1 anchoring protein A) | 0.85 | 0.62 |
| RD3 (RD3 regulator of GUCY2D) | 1.06 | 0.7 |
| SSR1 (signal sequence receptor subunit 1) | 1.18 | 0.8 |
| DYNLL2 (dynein light chain LC8-type 2) | 1 | 0.8 |
| BLTP3A (bridge-like lipid transfer protein family member 3A) | 1.37 | 1.29 |
| TMEM120B (transmembrane protein 120B) | 1.15 | 0.9 |
| SLC27A6 | 0.95 | 0.97 |
| EDNRA (endothelin receptor type A) | 1.29 | 1.1 |
| RRAGB (Ras related GTP binding B) | 1.21 | 0.85 |
| FAM78A (family with sequence similarity 78 member A) | 0.79 | 0.5 |
| MCF2 (MCF.2 cell line derived transforming sequence) | 0.96 | 1.14 |
| KCTD15 (potassium channel tetramerization domain containing 15) | 1.24 | 0.99 |
| PROM1 (prominin 1) | 0.92 | 0.66 |
| DNAJC10 (DnaJ heat shock protein family (Hsp40) member C10) | 0.95 | 0.78 |
| F5 (coagulation factor V) | 1 | 0.86 |
| TNFRSF8 (TNF receptor superfamily member 8) | 0.62 | 0.36 |
| ATP6V0C (ATPase H+ transporting V0 subunit c) | 1.22 | 0.66 |
| RUMY4 (RUMY family member 4) | 0.97 | 0.91 |
| ARNT (aryl hydrocarbon receptor nuclear translocator) | 1.12 | 1.01 |
| PHOX2B (paired like homeobox 2B) | 0.9 | 0.86 |
| SH3RF1 (SH3 domain containing ring finger 1) | 0.91 | 0.82 |
| ICAM2 (intercellular adhesion molecule 2) | 1.21 | 1.02 |
| FUCA2 (alpha-L-fucosidase 2) | 0.55 | 0.51 |
| RAMP2 (receptor activity modifying protein 2) | 0.91 | 0.85 |
| ZNF235 (zinc finger protein 235) | 0.95 | 0.8 |
| KCNT1 (potassium sodium-activated channel subfamily T member 1) | 1.55 | 1.19 |
| NR2C2 (nuclear receptor subfamily 2 group C member 2) | 0.91 | 0.71 |
| MAD1L1 (mitotic arrest deficient 1 like 1) | 1.44 | 0.72 |
| GFRA2 (GDNF family receptor alpha 2) | 0.89 | 0.71 |
| PHB2 (prohibitin 2) | 1.12 | 0.72 |
| GARS1 (glycyl-tRNA synthetase 1) | 1.04 | 0.95 |
| ENTPD4 (ectonucleoside triphosphate diphosphohydrolase 4) | 0.94 | 1 |
| APOA4 (apolipoprotein A4) | 1.22 | 0.66 |
| MYLK (myosin light chain kinase) | 0.87 | 0.75 |
| UBQLN3 (ubiquilin 3) | 0.92 | 1.06 |
| KIR2DL5A | 1.15 | 0.53 |

Quoted from above for reference:
| gene symbol | CDH1-null / parental viability ratio | CDH1-null viability vs mock (fraction of mock) |
| --- | --- | --- |
| KCNT1 (potassium sodium-activated channel subfamily T member 1) | 1.55 | 1.19 |
| NR2C2 (nuclear receptor subfamily 2 group C member 2) | 0.91 | 0.71 |
| MAD1L1 (mitotic arrest deficient 1 like 1) | 1.44 | 0.72 |
| GFRA2 (GDNF family receptor alpha 2) | 0.89 | 0.71 |
| PHB2 (prohibitin 2) | 1.12 | 0.72 |
| GARS1 (glycyl-tRNA synthetase 1) | 1.04 | 0.95 |
| ENTPD4 (ectonucleoside triphosphate diphosphohydrolase 4) | 0.94 | 1 |
| APOA4 (apolipoprotein A4) | 1.22 | 0.66 |
| MYLK (myosin light chain kinase) | 0.87 | 0.75 |
| UBQLN3 (ubiquilin 3) | 0.92 | 1.06 |
| KIR2DL5A | 1.15 | 0.53 |
